Data published in the supplement of paper PMC3334620.
Whole data set: some 33,000 sequences, median “E-score (-0.5 to 0.5)” near -0.0014, cut for the highest 2% near 0.25. The list shows a part of the results.

Target: T1, Cad1 (UniProt P24813)
T1 sequence: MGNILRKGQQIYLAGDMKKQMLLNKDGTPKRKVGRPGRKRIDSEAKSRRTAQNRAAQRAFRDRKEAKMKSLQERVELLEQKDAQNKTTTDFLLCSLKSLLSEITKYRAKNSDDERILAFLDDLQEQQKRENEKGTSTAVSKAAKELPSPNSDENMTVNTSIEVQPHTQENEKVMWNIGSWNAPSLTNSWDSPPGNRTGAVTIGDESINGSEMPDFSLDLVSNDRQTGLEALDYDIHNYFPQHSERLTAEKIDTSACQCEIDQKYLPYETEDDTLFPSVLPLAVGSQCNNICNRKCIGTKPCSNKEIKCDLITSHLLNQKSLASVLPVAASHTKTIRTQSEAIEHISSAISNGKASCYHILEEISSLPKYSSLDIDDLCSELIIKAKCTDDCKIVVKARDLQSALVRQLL
Assay: PBM E-score (8-mer binding enrichment) (E-score (-0.5 to 0.5)); higher = stronger / more preferred TF binding
Conditions: protein concentration: 100 nM; construct: GST-full length
In short: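 Universal all-10-mer Agilent arrays, fresh or stripped once, were converted to double-stranded form by primer extension. GST-tagged yeast transcription factors from PURExpress in vitro transcription/translation, full-length or DNA-binding domain only, were applied at about 100-200 nM and detected with fluorescent anti-GST. After masliner normalisation, the Universal PBM Analysis Suite scored each ungapped eight-base word together with its reverse complement by E-score.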

Sequence	PBM E-score
GCAAAAAC	-0.039
CTCAAGAC	-0.0669
ACCTATAG	-0.0679
CATCTCCC	-0.271
GTTAACTA	0.274
CGCCGCGA	0.205
CGTCCCAA	0.0319
CTCACCCC	-0.273
GTCGAAGA	-0.0249
GGGCACAA	-0.151
ACGGTCCG	-0.201
CGCCCTAC	-0.0285
AACAACTC	-0.0423
GCGTGTAA	0.00701
CGTAGACG	-0.105
CGACGTAC	-0.0332
ACGTCGAG	0.00107
GAACGTGC	-0.102
GAGAGTGC	-0.208
ATATGAGA	0.0644
CCCATTAG	-0.3
ACTAATTG	0.197

Sequence	PBM E-score
GGCAAACA	-0.00107
CCAGATCC	-0.0837
CGTGCAAA	0.145
GTATGCAA	0.0691
ATAAACAT	0.0914
GAATTGGC	-0.057
TAACCTAA	-0.0237
CTGAAGAA	-0.18
CTCACCAC	0.00332
ACCGTGTA	0.00454
CAATCCAC	0.0588
TAAGCTGA	0.208
AACCGGTA	-0.0764
TAAATTCA	0.0134
CCACCAGA	0.0137
GTACATCA	0.105
ATCGAATA	-0.00799
AGCTGCCT	-0.114
TCATATAA	-0.00059
AGCTTTAG	-0.0922
CCTTGGGC	-0.266
CTCTAGAA	-0.234

Exported field by field: part of the list above
ATATGAGA
  PBM E-score: 0.0644
CTGAAGAA
  PBM E-score: -0.18
CAATCCAC
  PBM E-score: 0.0588

(next part)

Sequence	PBM E-score
GGGAGAGA	-0.341
CGGCACAC	0.0867
ACAGCCTG	-0.228
CATGATGG	-0.0743
CATCGGCC	-0.0158
CATATTGC	-0.116
GAAGCAGC	-0.19
AGGTAGCC	0.00072
ATGCAAGC	0.00976
AAGTAGTG	-0.109
ATTGTTGA	0.125
ATAACACA	0.149
CTGGCAAC	0.00154
AGTCAGAA	-0.0213
TATCTAGA	-0.0529
GGTAGCAA	-0.0853
AGTTAGAC	0.0452
ATAGATCA	0.167
AGAGCTAA	-0.185
ACGAAGAG	-0.0102
ACCCAACA	-0.141
CTTGATTC	0.0981

Sequence	PBM E-score
CCGGATGC	-0.114
AAGGAGAA	-0.124
ATAGTTGA	0.134
ATACTCTG	0.0457
CTTGAGTA	-0.134
ACAGAAGG	-0.17
CTAGTAAG	0.203
ATCTAATC	0.159
CAGGCAGC	-0.0777
AGATCATC	0.0574
ACGCTACT	-0.0733
ATTTATAA	0.341
CCAATTAG	0.223
ATGGGACC	-0.00547
CCAGACTA	0.0923
CCCCCCAC	-0.455
TACATGTA	0.27
AGTAACAC	0.141
CTCGGGAA	-0.00746
CTAGCGCA	0.0505
